PMC5309953
These are yes or no findings as the source states them, for the method shown. Binding seen in cells or lysates may run through a third protein. Some results given as binding are weak or reduced against the parent protein; the word gives no strength.

Key:
[1] = molecular target: GFP-IRAV (IRAV with an amino-terminal green fluorescent protein fusion) (human) (UniProt Q9NUL5); experiment: co-IP; HEK293 cells overexpressing GFP-IRAV; lysates treated with RNase A, then IP with an antibody to GFP, Western blot for MOV10, UPF1, HuR
[2] = molecular target: GFP-IRAV (IRAV with an amino-terminal green fluorescent protein fusion) (human) (UniProt Q9NUL5); experiment: co-IP; HEK293 cells, uninfected or DENV-infected, transfected with GFP-IRAV (GFP-CAT as control); IP of lysates with an antibody to GFP, Western blot for the partner

Row | binding [1] | binding [2] | Binder
1 | binds | binds | MOV10 (RISC complex RNA helicase) (enzyme, UniProt Q9HCE1 1-1003) MPSKFSCRQLREAGQCFESFLVVRGLDMETDRERLRTIYNRDFKISFGTPAPGFSSMLYGMKIANLAYVTKTRVRFFRLDRWADVRFPEKRRMKLGSDISKHHKSLLAKIFYDRAEYLHGKHGVDVEVQGPHEARDGQLLIRLDLNRKEVLTLRLRNGGTQSVTLTHLFPLCRTPQFAFYNEDQELPCPLGPGECYELHVHCKTSFVGYFPATVLWELLGPGESGSEGAGTFYIARFLAAVAHSPLAAQLKPMTPFKRTRITGNPVVTNRIEEGERPDRAKGYDLELSMALGTYYPPPRLRQLLPMLLQGTSIFTAPKEIAEIKAQLETALKWRNYEVKLRLLLHLEELQMEHDIRHYDLESVPMTWDPVDQNPRLLTLEVPGVTESRPSVLRGDHLFALLSSETHQEDPITYKGFVHKVELDRVKLSFSMSLLSRFVDGLTFKVNFTFNRQPLRVQHRALELTGRWLLWPMLFPVAPRDVPLLPSDVKLKLYDRSLESNPEQLQAMRHIVTGTTRPAPYIIFGPPGTGKTVTLVEAIKQVVKHLPKAHILACAPSNSGADLLCQRLRVHLPSSIYRLLAPSRDIRMVPEDIKPCCNWDAKKGEYVFPAKKKLQEYRVLITTLITAGRLVSAQFPIDHFTHIFIDEAGHCMEPESLVAIAGLMEVKETGDPGGQLVLAGDPRQLGPVLRSPLTQKHGLGYSLLERLLTYNSLYKKGPDGYDPQFITKLLRNYRSHPTILDIPNQLYYEGELQACADVVDRERFCRWAGLPRQGFPIIFHGVMGKDEREGNSPSFFNPEEAATVTSYLKLLLAPSSKKGKARLSPRSVGVISPYRKQVEKIRYCITKLDRELRGLDDIKDLKVGSVEEFQGQERSVILISTVRSSQSFVQLDLDFNLGFLKNPKRFNVAVTRAKALLIIVGNPLLLGHDPDWKVFLEFCKENGGYTGCPFPAKLDLQQGQNLLQGLSKLSPSTSGPHSHDYLPQEREGEGGLSLQVEPEWRNEL
2 | binds | binds | UPF1 (enzyme, UniProt Q92900 1-1129) MSVEAYGPSSQTLTFLDTEEAELLGADTQGSEFEFTDFTLPSQTQTPPGGPGGPGGGGAGGPGGAGAGAAAGQLDAQVGPEGILQNGAVDDSVAKTSQLLAELNFEEDEEDTYYTKDLPIHACSYCGIHDPACVVYCNTSKKWFCNGRGNTSGSHIVNHLVRAKCKEVTLHKDGPLGETVLECYNCGCRNVFLLGFIPAKADSVVVLLCRQPCASQSSLKDINWDSSQWQPLIQDRCFLSWLVKIPSEQEQLRARQITAQQINKLEELWKENPSATLEDLEKPGVDEEPQHVLLRYEDAYQYQNIFGPLVKLEADYDKKLKESQTQDNITVRWDLGLNKKRIAYFTLPKTDSGNEDLVIIWLRDMRLMQGDEICLRYKGDLAPLWKGIGHVIKVPDNYGDEIAIELRSSVGAPVEVTHNFQVDFVWKSTSFDRMQSALKTFAVDETSVSGYIYHKLLGHEVEDVIIKCQLPKRFTAQGLPDLNHSQVYAVKTVLQRPLSLIQGPPGTGKTVTSATIVYHLARQGNGPVLVCAPSNIAVDQLTEKIHQTGLKVVRLCAKSREAIDSPVSFLALHNQIRNMDSMPELQKLQQLKDETGELSSADEKRYRALKRTAERELLMNADVICCTCVGAGDPRLAKMQFRSILIDESTQATEPECMVPVVLGAKQLILVGDHCQLGPVVMCKKAAKAGLSQSLFERLVVLGIRPIRLQVQYRMHPALSAFPSNIFYEGSLQNGVTAADRVKKGFDFQWPQPDKPMFFYVTQGQEEIASSGTSYLNRTEAANVEKITTKLLKAGAKPDQIGIITPYEGQRSYLVQYMQFSGSLHTKLYQEVEIASVDAFQGREKDFIILSCVRANEHQGIGFLNDPRRLNVALTRARYGVIIVGNPKALSKQPLWNHLLNYYKEQKVLVEGPLNNLRESLMQFSKPRKLVNTINPGARFMTTAMYDAREAIIPGSVYDRSSQGRPSSMYFQTHDQIGMISAGPSHVAAMNIPIPFNLVMPPMPPPGYFGQANGPAAGRGTPKGKTGRGGRQKNRFGLPGPSQTNLPNSQASQDVASQPFSQGALTQGYISMSQPSQMSQPGLSQPELSQDSYLGDEFKSQIDVALSQDSTYQGERAYQHGGVTGLSQY
